Data on 40 compounds can be found in PubChem BioAssay AID2685 (National Center for Advancing Translational Sciences (NCATS), 2010).

A word on the AC50: it is the concentration giving half of the maximal activity seen.

SMILES strings stand for the structures. Some of the results follow. Shown are side measurements of this screen, not its main read-out; they come without a call. Most of these compounds were active or inconclusive in the main read-out, so they are no random draw. Potencies come from curve fits of mixed quality, noted in brackets.

The nature of the test: qHTS Assay for Lipid Storage Modulators in Drosophila S3 Cells.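 For cell number change: cells counted by Cell Tracker Red CMTPX staining in the red channel.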 The following applies: BODIPY lipid droplet fluorescence, 18-24 h; for cell number change: measured here: cell count max response, cells fed with added oleic acid. The gist of the method: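 Laser-scanning cytometry quantifies lipid droplet accumulation (500–530 nm total intensity; droplet/cell object ratio) in oleic acid-fed (400 uM added) Drosophila S3 cells treated with a concentration series. 20 uM Triacsin C defined 100% inhibition.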

Setting [1] is: measured here: cell number channel AC50, cells fed with added oleic acid.
Setting [2] is: measured here: lipid fluorescence (Fed channel) AC50, cells fed with added oleic acid.

In the case of `CCOc1ccccc1NC(=O)CSc1nc(=O)n(CCCN2CCOCC2)c2c1CCC2`, under setting [1], the AC50 is 0.291 µM [falling, partial curve, poor fit].

For `CCn1cc(CNC(=O)/C=C/c2ccc([N+](=O)[O-])cc2)c(C)n1`, the cell number change came to 3.16%. In addition, the AC50 under setting [2] was 23.1 µM [falling, single point].

As to `COc1ccc(C(C)NC(=O)CC23CC4CC(CC(C4)C2)C3)cc1` (stereo not drawn), the cell number change was -4.11%.

Regarding `Cc1ccc(OCC(=O)Nc2ccncc2)c(C)c1`, the cell number change was -23.9%. Besides, the AC50 under setting [2] was 29.1 µM [falling, single point].

For the compound `Cn1c(SCC(=O)N2CCN(S(=O)(=O)c3ccc(Cl)cc3)CC2)nc2ccccc21`, the cell number change is 52.9%. Under setting [1], the AC50 was 11.6 µM [rising, partial curve].

As to `O=C(OCc1c(Cl)nc2sccn12)c1cc2c(s1)CCCC2`, the cell number change came to 3.65%.

`COc1cccc(C2C3CN(C)CC=C3C(C#N)=C(N)C2(C#N)C#N)c1OC` (stereo not drawn): under setting [1], the AC50 is 1.84 µM [rising, partial curve, poor fit].

Take `C=CCN1C(=O)N/C(=C/c2ccc(C)o2)C1=O`: the cell number change was -37.2%. Further, under setting [1], the AC50 is 32.6 µM [falling, single point]. Also, under setting [2], the AC50 was 29.1 µM [falling, partial curve, poor fit].

For the compound `COc1ccc(-c2cc3c(=O)n(CC(=O)NCCCc4ccccc4)ncn3n2)cc1`, the cell number change is 33.1%. Also, the AC50 under setting [1] is 29.1 µM [rising, single point].

For the compound `CCOC(=O)c1sc(NC(=O)CSc2nccc(C)n2)nc1C`, the cell number change was 61.1%.

On to `COc1cccc(/C=N/NC(=O)c2ccc(N3CCCC3=O)cc2)c1`, for which the cell number change turned out to be 8.33%. Further, the AC50 under setting [1] was 6.51 µM [rising, single point].

Take `COc1ccc(CN(CC2CCCO2)C(=O)c2cc3sccc3n2C)c(OC)c1` (stereo not drawn): the cell number change worked out at 23.9%. Further, the AC50 under setting [2] was 29.1 µM [rising, single point].

`Cc1cc(N2C(=O)C(O)=C(C(=O)c3ccco3)C2c2ccccc2F)no1` (stereo not drawn): the cell number change was 0.348%.

As for `CCOC(=O)c1c(-c2ccccc2)csc1NC(=O)CSc1ccccc1`, the cell number change is 30.7%. Further, the AC50 under setting [1] is 1.64 µM [rising, full curve, poor fit]. Further, the AC50 under setting [2] was 7.31 µM [rising, partial curve].

For the compound `Cc1ccc(CNC(=O)CSc2ncc(C(=O)Nc3ccccc3)c(=O)n2C)cc1`, the cell number change was 3%.

With `O=C(Nc1ccc2c(c1)OCCO2)c1cc(F)c(F)cc1Cl`, the cell number change is -23.5%. The AC50 under setting [2] is 10.3 µM [rising, partial curve].

As to `O=C(NC1CCCCC1)C1CCCN(S(=O)(=O)c2cccs2)C1` (stereo not drawn), the cell number change was -25.6%. Under setting [2], the AC50 is 16.4 µM [falling, partial curve, poor fit].

Consider `CCOC(CNC(=O)C(=O)Nc1cc2c3c(c1)CCC(=O)N3CCC2)OCC`, for which the cell number change was 15.3%. Further, the AC50 under setting [2] is 29.1 µM [falling, single point].

As to `COc1ccc(NC(=O)c2csc(C)c2)cc1OC`, the AC50 under setting [2] was 22.4 µM [rising, single point].

As to `COc1ccc(CC(=O)OCC(=O)c2ccc(S(=O)(=O)N3CCCCC3)cc2)cc1`, the cell number change is -2.69%. Further, the AC50 under setting [2] was 0.731 µM [rising, full curve, poor fit].

For `COCC1CCN(Cc2nc(-c3ccc4c(c3)OCO4)no2)C1` (stereo not drawn), the AC50 under setting [2] was 29.1 µM [rising, single point].

For the compound `O=C(NNC(=S)NC1CCCCC1)c1ccccc1Br`, the cell number change amounted to 0.472%.

For the compound `COc1ccc(N2C(=O)CN=C2Nc2cccc(C)c2C)cc1OC`, the cell number change turned out to be 13.7%. Also, under setting [2], the concentration at half-maximal activity (AC50) is 4.11 µM [rising, full curve, poor fit].

Regarding `O=C(NCC1CCCN(C(=O)c2cscn2)C1)c1ccccc1Cl` (stereo not drawn), the cell number change was -2.41%. Moreover, the AC50 under setting [2] was 6.51 µM [falling, single point].

On to `Cc1nn(CC(=O)NCCN2CCOCC2)c(C)c1[N+](=O)[O-]`, for which the cell number change is -31%. The AC50 under setting [1] is 29.1 µM [falling, single point]. Further, under setting [2], the AC50 was 0.206 µM [rising, full curve, poor fit].

With `CC(CNS(=O)(=O)c1ccccc1)Sc1ncccn1` (stereo not drawn), the cell number change was -11%. The AC50 under setting [2] was 0.00651 µM [falling, full curve, poor fit].

For the compound `Clc1ccc(CNCCC2=CCCCC2)cc1`, the AC50 under setting [1] was 6.51 µM [falling, single point] and the AC50 under setting [2] is 6.51 µM [falling, single point].

`CC(=O)c1ccc(NC(=O)Nc2cccc(Cl)c2)cc1`: the cell number change is -78.1%. Also, the half-maximal activity concentration (AC50) under setting [1] is 5.8 µM [falling, partial curve]. Besides, the AC50 under setting [2] was 29.1 µM [falling, single point].

As to `CC(CC(=O)O)C(=O)c1ccc(Cl)c([N+](=O)[O-])c1` (stereo not drawn), the cell number change is 9.07%. Further, the AC50 under setting [1] is 0.731 µM [falling, single point]. Moreover, the AC50 under setting [2] is 0.58 µM [falling, single point].

Regarding `Cc1cc(C)c2nc(N3CCCN(C(=O)c4cnccn4)CC3)c(C#N)cc2c1`, the cell number change is -11.5%.

As for `O=C(/C=C/c1cccc(Cl)c1Cl)OCC(=O)N1CCOCC1`, the cell number change is -20.6%.

For `Cc1nn(C)cc1CNC(=O)c1cnn2c1NC(c1ccc(Br)cc1)CC2C(F)(F)F` (stereo not drawn), the cell number change was -14.8%. Further, the AC50 under setting [2] was 0.326 µM [rising, full curve, poor fit].

For the compound `COc1ccc(OC)c(NC(=O)CN(Cc2ccc(F)cc2)C2CCCCC2)c1`, under setting [2], the AC50 was 4.11 µM [falling, full curve].

Take `O=C(Cn1cnc2ccccc21)N/N=C/c1ccccc1`: the cell number change was -5.37%. In addition, the AC50 under setting [1] is 3.26 µM [rising, single point].

Consider `Cc1nnc(SCC(=O)Nc2cc(C(F)(F)F)ccc2Cl)n1C`, for which the cell number change is -12.4%. Further, the half-maximal activity concentration (AC50) under setting [1] is 0.116 µM [falling, full curve, poor fit].

With `CNCc1ccccc1OCc1ccccc1F`, the cell number change worked out at 15.5%. For the same compound, under setting [2], the AC50 is 4.61 µM [rising, single point].

In the case of `COC(=O)CC(NC(=O)c1cccs1)c1ccc(OC)c(OC)c1` (stereo not drawn), the cell number change was -10%. Under setting [1], the AC50 was 6.51 µM [falling, single point].

Take `COCCOc1ccc(C(F)(F)F)cc1NC(=O)c1ccccc1F`: the cell number change stood at 0.0804%. In addition, the AC50 under setting [2] is 2.59 µM [rising, full curve].

`COc1ccccc1NS(=O)(=O)c1ccc(N/N=C/c2c(C)nn(-c3ccccc3)c2N2CCCC2)c([N+](=O)[O-])c1`: the cell number change was -87.4%. Further, the AC50 under setting [1] was 4.11 µM [falling, full curve]. Besides, the AC50 under setting [2] is 25.9 µM [falling, single point].

For `Cn1c(=O)c2[nH]c(N3CCOCC3)nc2n(-c2ccccc2)c1=O`, the cell number change stood at 8.12%. For the same compound, the half-maximal activity concentration (AC50) under setting [2] was 20.6 µM [falling, partial curve].
